The supplement of paper PMC4604168 (melanoma cell lines)
Some of the results follow. Many values rest on one well or one pass, so single values are uncertain.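 The apoptosis fraction was the count of cleaved-PARP antibody-stained nuclei relative to all DNA-stained nuclei, imaged in 1,536-well plates. Screening doses were set so most cells survived, and baseline and induced cleaved-PARP levels vary greatly across cell lines.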

Columns and labels:
Assay in all cases: cleaved PARP positive nuclei fraction relative to DMSO control; melanoma cells; higher = more apoptosis
Conditions in all cases: library dose: low library concentration; 72 h
MZ2-MEL = system: MZ2-MEL
MeWo = system: MeWo
RPMI7951 = system: RPMI7951
RVH-421 = system: RVH-421
SkMel28 = system: SkMel28
SkMel30 = system: SkMel30
SkMel5 = system: SkMel5
UACC257 = system: UACC257
UACC62 = system: UACC62
WM115 = system: WM115
WM1716 = system: WM1716
WM1745 = system: WM1745
WM3526 = system: WM3526
WM3619 = system: WM3619
WM451Lu = system: WM451Lu

Structure (SMILES)	cleaved PARP positive nuclei fraction (MZ2-MEL) [%]	cleaved PARP positive nuclei fraction (MeWo) [%]	cleaved PARP positive nuclei fraction (RPMI7951) [%]	cleaved PARP positive nuclei fraction (RVH-421) [%]	cleaved PARP positive nuclei fraction (SkMel28) [%]	cleaved PARP positive nuclei fraction (SkMel30) [%]	cleaved PARP positive nuclei fraction (SkMel5) [%]	cleaved PARP positive nuclei fraction (UACC257) [%]	cleaved PARP positive nuclei fraction (UACC62) [%]	cleaved PARP positive nuclei fraction (WM115) [%]	cleaved PARP positive nuclei fraction (WM1716) [%]	cleaved PARP positive nuclei fraction (WM1745) [%]	cleaved PARP positive nuclei fraction (WM3526) [%]	cleaved PARP positive nuclei fraction (WM3619) [%]	cleaved PARP positive nuclei fraction (WM451Lu) [%]
C[C@]1(c2nc3c(C(N)=O)cccc3[nH]2)CCCN1 [Veliparib] + Oc1cc(-c2nc(-c3ccccc3)[nH]c2-c2ccncc2)ccc1Cl [L779450] (first compound 1.4 µM, partner dose 0.2 µM)	108	31.5	41	61.4	120	30.5	20.8	79.3	271	652	110	121	354	122	63.3
OCCn1cc(-c2cnc3nnn(Cc4ccc5ncccc5c4)c3n2)cn1 + COc1ccc(-c2ccc3c(N4CCOCC4)nc(N4C[C@@H](C)O[C@@H](C)C4)nc3n2)cc1CO [KU0063794] (first compound 1 µM, partner dose 0.02 µM)	115	111	37.6	47.8	127	26.1	80.4	61.2	55.2	272	170	313	276	247	88.4
Nc1cccc2c1CN(C1CCC(=O)NC1=O)C2=O (stereo not given) [lenalidomide] + COc1ccc(-c2ccc3c(N4CCOCC4)nc(N4C[C@@H](C)O[C@@H](C)C4)nc3n2)cc1CO [KU0063794] (first compound 1 µM, partner dose 0.02 µM)	117	127	45.3	138	129	45.8	107	187	82.2	162	52.9	199	78	113	59.1
CC1(C)NC(=O)N(c2ccc([N+](=O)[O-])c(C(F)(F)F)c2)C1=O [nilutamide] + Oc1cc(-c2nc(-c3ccccc3)[nH]c2-c2ccncc2)ccc1Cl [L779450] (first compound 1 µM, partner dose 0.2 µM)	184	54.7	91.9	84	112	37.4	61.8	21	145	78.6	136	105	218	42.8	126
Cn1c(Nc2ccc(C(F)(F)F)cc2)nc2cc(Oc3ccnc(-c4ncc(C(F)(F)F)[nH]4)c3)ccc21 + COc1ccc2c(c1)CCC1C2CCC2(C)C(NCCCCCCN3C(=O)C=CC3=O)CCC12 [U73122] (first compound 0.08 µM, partner dose 0.4 µM)	124	52.7	155	87	172	98.2	104	704	137	597	190	168	152	114	56.3
COCC[n+]1c2c(n(Cc3cnccn3)c1C)C(=O)c1ccccc1C2=O + O=C(Nc1ccccc1)c1cc([N+](=O)[O-])ccc1Cl [GW9662] (first compound 0.0004 µM, partner dose 2 µM)	139	55.9	51.7	164	210	33.9	158	46.6	39.1	202	83.5	96.2	194	130	86.7
OCCn1cc(-c2cnc3nnn(Cc4ccc5ncccc5c4)c3n2)cn1 + O=C1NC(=O)/C(=C/c2ccc(-c3ccc(F)cc3O)o2)S1 [AS252424] (first compound 1 µM, partner dose 1 µM)	156	56.8	143	87.5	106	46.5	155	62	129	70.6	155	92.9	76.9	123	67.5
COc1cc(Nc2ncc(F)c(Nc3ccc4c(n3)NC(=O)C(C)(C)O4)n2)cc(OC)c1OC [Tamatinib] + Cn1cc(/C=C2\C(=O)Nc3cccnc32)c2ccccc21 [GW441756] (first compound 0.4 µM, partner dose 0.4 µM)	129	118	52.9	100	239	25.5	135	71.4	64	154	87.9	150	100	92.7	66.7
C=CCn1c(=O)c2cnc(Nc3ccc(N4CCN(C)CC4)cc3)nc2n1-c1cccc(C(C)(C)O)n1 + Oc1nc(-c2ccc(C(F)(F)F)cc2)nc2c1CSCC2 [XAV939] (first compound 0.02 µM, partner dose 2 µM)	133	37.6	178	115	85.1	46.1	43.4	143	96.5	92.6	126	151	123	101	55.1
Nc1cccc2c1CN(C1CCC(=O)NC1=O)C2=O (stereo not given) [lenalidomide] + O=c1cc(-c2cccc3c2Sc2ccccc2S3)oc(N2CCOCC2)c1 [KU55933] (first compound 1 µM, partner dose 1 µM)	104	154	226	42.4	102	229	124	51.7	428	150	74.5	80.4	72	63.5	228
C=CCn1c(=O)c2cnc(Nc3ccc(N4CCN(C)CC4)cc3)nc2n1-c1cccc(C(C)(C)O)n1 + N#Cc1c(O)c2c(-c3ccc(-c4ccccc4O)cc3)csc2[nH]c1=O [A769662] (first compound 0.02 µM, partner dose 2 µM)	135	34.1	178	84	186	188	66.1	99.4	160	221	42.7	111	71.3	121	70.2
C=CCn1c(=O)c2cnc(Nc3ccc(N4CCN(C)CC4)cc3)nc2n1-c1cccc(C(C)(C)O)n1 + COC(=O)c1sccc1S(=O)(=O)Nc1ccc(Nc2ccccc2)cc1OC [GSK0660] (first compound 0.02 µM, partner dose 1 µM)	147	61	39.3	96.6	91.7	51.4	103	103	94.4	157	96.3	107	28.7	110	63.6
NC(=O)Nc1cc(-c2cccc(F)c2)sc1C(=O)N[C@H]1CCCNC1 + Oc1cc(-c2nc(-c3ccccc3)[nH]c2-c2ccncc2)ccc1Cl [L779450] (first compound 0.02 µM, partner dose 0.2 µM)	73.7	54.3	161	175	93.7	16	76.8	131	109	240	78.5	101	110	142	22.7
O=C(CCCCCCC(=O)Nc1ccccc1)NO [vorinostat] + Cc1cc([N+](=O)[O-])ccc1NS(=O)(=O)c1cc(Cl)ccc1Cl [FH535] (first compound 0.08 µM, partner dose 1 µM)	72.6	73.5	139	170	218	59.9	218	212	67.1	101	82	99.9	73	94.5	122
O=C(Nc1cccc(Cl)c1)Nc1ncc(CCNc2ncnc3ccsc23)s1 + CCN(CC)CCCCNc1ncc2cc(-c3cc(OC)cc(OC)c3)c(NC(=O)NC(C)(C)C)nc2n1 [PD173074] (first compound 0.0008 µM, partner dose 0.1 µM)	139	51.2	98.6	61.2	157	58.9	49.6	127	143	54	25.4	136	61.6	79.5	76.7
C[C@@H]1CCN(C(=O)CC#N)C[C@@H]1N(C)c1ncnc2[nH]ccc12 + Cn1cc(/C=C2\C(=O)Nc3cccnc32)c2ccccc21 [GW441756] (first compound 1 µM, partner dose 0.4 µM)	102	112	255	69.3	87.7	176	57.9	53.5	158	203	28	110	102	79.8	105
Cn1cncc1[C@@](N)(c1ccc(Cl)cc1)c1ccc2c(c1)c(-c1cccc(Cl)c1)cc(=O)n2C [tipifarnib] + CCc1ccc(CCOc2ccc(CC3SC(=O)NC3=O)cc2)nc1 [pioglitazone] (first compound 0.01 µM, partner dose 2 µM)	109	55.8	94.3	92.8	152	23.4	63.9	127	196	85.4	91.6	111	65.2	91.8	143
O=C(CCCCCCC(=O)Nc1ccccc1)NO [vorinostat] + CCc1ccc(CCOc2ccc(CC3SC(=O)NC3=O)cc2)nc1 [pioglitazone] (first compound 0.08 µM, partner dose 2 µM)	118	75.4	87.9	82.5	95.6	80.6	80.4	186	34.3	66.3	68.5	95.3	70.3	94.8	33.8
CO[C@@H]1[C@H](N(C)C(=O)c2ccccc2)C[C@H]2O[C@]1(C)n1c3ccccc3c3c4c(c5c6ccccc6n2c5c31)C(=O)NC4 [Midostaurin] + COc1cc2ncnc(Nc3ccc(Oc4ccccc4)cc3)c2cc1OC [SrcI1] (first compound 0.08 µM, partner dose 2 µM)	66.8	176	186	41.1	127	54.3	61.5	78.9	122	355	148	150	69.3	92.5	93.3

Whole records as entered above. Order of values: cleaved PARP positive nuclei fraction (MZ2-MEL) [%] | cleaved PARP positive nuclei fraction (MeWo) [%] | cleaved PARP positive nuclei fraction (RPMI7951) [%] | cleaved PARP positive nuclei fraction (RVH-421) [%] | cleaved PARP positive nuclei fraction (SkMel28) [%] | cleaved PARP positive nuclei fraction (SkMel30) [%] | cleaved PARP positive nuclei fraction (SkMel5) [%] | cleaved PARP positive nuclei fraction (UACC257) [%] | cleaved PARP positive nuclei fraction (UACC62) [%] | cleaved PARP positive nuclei fraction (WM115) [%] | cleaved PARP positive nuclei fraction (WM1716) [%] | cleaved PARP positive nuclei fraction (WM1745) [%] | cleaved PARP positive nuclei fraction (WM3526) [%] | cleaved PARP positive nuclei fraction (WM3619) [%] | cleaved PARP positive nuclei fraction (WM451Lu) [%]
C=CCn1c(=O)c2cnc(Nc3ccc(N4CCN(C)CC4)cc3)nc2n1-c1cccc(C(C)(C)O)n1 + N#Cc1c(O)c2c(-c3ccc(-c4ccccc4O)cc3)csc2[nH]c1=O [A769662] (first compound 0.02 µM, partner dose 2 µM) as listed: 135 | 34.1 | 178 | 84 | 186 | 188 | 66.1 | 99.4 | 160 | 221 | 42.7 | 111 | 71.3 | 121 | 70.2
Nc1cccc2c1CN(C1CCC(=O)NC1=O)C2=O (stereo not given) [lenalidomide] + COc1ccc(-c2ccc3c(N4CCOCC4)nc(N4C[C@@H](C)O[C@@H](C)C4)nc3n2)cc1CO [KU0063794] (first compound 1 µM, partner dose 0.02 µM) as listed: 117 | 127 | 45.3 | 138 | 129 | 45.8 | 107 | 187 | 82.2 | 162 | 52.9 | 199 | 78 | 113 | 59.1
